Literature values, collected in patent publication US20060128792A1, “Deguelin as a chemopreventive agent for lung cancer” (priority 2002, published 2006).
At least one compound was matched to its structure with a doubt left.

System: PI3K
Conditions: cited from earlier work

O=c1cc(N2CCOCC2)oc2c(-c3ccccc3)cccc12 [LY294002, reference compound]
reported IC50 relative to that of wortmannin (higher): about 500 fold
